We go through 14 molecules from publication PMC3695902.

No constants are given. Whether binding was seen depends on the method and setting. Binding can be weak; no strength is given. For some assays here: Sequences can lack the tags named with a protein. For some assays here: In cells and extracts the contact can be indirect.

To fix the notation:
B1: SIAH1 (seven in absentia homolog 1) fragment 1-233, Y2H prey clone (domain or fragment, UniProt Q8IUQ4-1 1-233)
chain: MSRQTATALPTGTSKCPPSQRVPALTGTTASNNDLASLFECPVCFDYVLPPILQCQSGHLVCSNCRPKLTCCPTCRGPLGSIRNLAMEKVANSVLFPCKYASSGCEITLPHTEKADHEELCEFRPYSCPCPGASCKWQGSLDAVMPHLMHQHKSITTLQGEDIVFLATDINLPGAVDWVMMQSCFGFHFMLVLEKQEKYDGHQQFFAIVQLIGTRKQAENFAYRLELNGHRRR
B2: SIAH2 (seven in absentia homolog 2) fragment 122-324, Y2H prey clone (domain or fragment, UniProt O43255 122-324)
chain: IRNLAMEKVASAVLFPCKYATTGCSLTLHHTEKPEHEDICEYRPYSCPCPGASCKWQGSLEAVMSHLMHAHKSITTLQGEDIVFLATDINLPGAVDWVMMQSCFGHHFMLVLEKQEKYEGHQQFFAIVLLIGTRKQAENFAYRLELNGNRRRLTWEATPRSIHDGVAAAIMNSDCLVFDTAIAHLFADNGNLGINVTISTCCP
B3: AUP1 (ancient ubiquitous protein 1) fragment 321-410, Y2H prey clone (domain or fragment, UniProt Q9Y679-2 321-410)
chain: AKTGCVDLTITNLLEGAVAFMPEDITKGTQSLPTASASKFPSSGPVTPQPTALTFAKSSWARQESLQERKQALYEYARRRFTERRAQEAD
B4: S-tagged Zyxin (protein, UniProt Q15942-1 1-572)
chain: MAAPRPSPAISVSVSAPAFYAPQKKFGPVVAPKPKVNPFRPGDSEPPPAPGAQRAQMGRVGEIPPPPPEDFPLPPPPLAGDGDDAEGALGGAFPPPPPPIEESFPPAPLEEEIFPSPPPPPEEEGGPEAPIPPPPQPREKVSSIDLEIDSLSSLLDDMTKNDPFKARVSSGYVPPPVATPFSSKSSTKPAAGGTAPLPPWKSPSSSQPLPQVPAPAQSQTQFHVQPQPQPKPQVQLHVQSQTQPVSLANTQPRGPPASSPAPAPKFSPVTPKFTPVASKFSPGAPGGSGSQPNQKLGHPEALSAGTGSPQPPSFTYAQQREKPRVQEKQHPVPPPAQNQNQVRSPGAPGPLTLKEVEELEQLTQQLMQDMEHPQRQNVAVNELCGRCHQPLARAQPAVRALGQLFHIACFTCHQCAQQLQGQQFYSLEGAPYCEGCYTDTLEKCNTCGEPITDRMLRATGKAYHPHCFTCVVCARPLEGTSFIVDQANRPHCVPDYHKQYAPRCSVCSEPIMPEPGRDETVRVVALDKNFHMKCYKCEDCGKPLSIEADDNGCFPLDGHVLCRKCHTARAQT
B5: S-tagged SIAH1 (residues 1-282, pET30a) (protein, UniProt Q8IUQ4-1 1-282)
chain: MSRQTATALPTGTSKCPPSQRVPALTGTTASNNDLASLFECPVCFDYVLPPILQCQSGHLVCSNCRPKLTCCPTCRGPLGSIRNLAMEKVANSVLFPCKYASSGCEITLPHTEKADHEELCEFRPYSCPCPGASCKWQGSLDAVMPHLMHQHKSITTLQGEDIVFLATDINLPGAVDWVMMQSCFGFHFMLVLEKQEKYDGHQQFFAIVQLIGTRKQAENFAYRLELNGHRRRLTWEATPRSIHEGIATAIMNSDCLVFDTSIAQLFAENGNLGINVTISMC
B6: myc-tagged truncated SIAH2 (trSIAH2, residues 122-324) (domain or fragment, UniProt O43255 122-324)
chain: B2 chain
B7: myc-tagged full-length VAPA (protein, UniProt Q9P0L0-1 1-249)
chain: MASASGAMAKHEQILVLDPPTDLKFKGPFTDVVTTNLKLRNPSDRKVCFKVKTTAPRRYCVRPNSGIIDPGSTVTVSVMLQPFDYDPNEKSKHKFMVQTIFAPPNTSDMEAVWKEAKPDELMDSKLRCVFEMPNENDKLNDMEPSKAVPLNASKQDGPMPKPHSVSLNDTETRKLMEECKRLQGEMMKLSEENRHLRDEGLRLRKVAHSDKPGSTSTASFRDNVTSPLPSLLVVIAAIFIGFFLGKFIL
B8: myc-tagged truncated SIAH1 (trSIAH1, residues 91-282) (domain or fragment, UniProt Q8IUQ4-1 91-282)
chain: ANSVLFPCKYASSGCEITLPHTEKADHEELCEFRPYSCPCPGASCKWQGSLDAVMPHLMHQHKSITTLQGEDIVFLATDINLPGAVDWVMMQSCFGFHFMLVLEKQEKYDGHQQFFAIVQLIGTRKQAENFAYRLELNGHRRRLTWEATPRSIHEGIATAIMNSDCLVFDTSIAQLFAENGNLGINVTISMC
B9: myc-tagged full-length AUP1 (protein, UniProt Q9Y679-2 1-410)
chain: MELPSGPGPERLFDSHRLPGDCFLLLVLLLYAPVGFCLLVLRLFLGIHVFLVSCALPDSVLRRFVVRTMCAVLGLVARQEDSGLRDHSVRVLISNHVTPFDHNIVNLLTTCSTPLLNSPPSFVCWSRGFMEMNGRGELVESLKRFCASTRLPPTPLLLFPEEEATNGREGLLRFSSWPFSIQDVVQPLTLQVQRPLVSVTVSDASWVSELLWSLFVPFTVYQVRWLRPVHRQLGEANEEFALRVQQLVAKELGQTGTRLTPADKAEHMKRQRHPRLRPQSAQSSFPPSPGPSPDVQLATLAQRVKEVLPHVPLGVIQRDLAKTGCVDLTITNLLEGAVAFMPEDITKGTQSLPTASASKFPSSGPVTPQPTALTFAKSSWARQESLQERKQALYEYARRRFTERRAQEAD
B10: myc-tagged full-length WLS (protein, UniProt Q5T9L3-1 1-541)
chain: MAGAIIENMSTKKLCIVGGILLVFQIIAFLVGGLIAPGPTTAVSYMSVKCVDARKNHHKTKWFVPWGPNHCDKIRDIEEAIPREIEANDIVFSVHIPLPHMEMSPWFQFMLFILQLDIAFKLNNQIRENAEVSMDVSLAYRDDAFAEWTEMAHERVPRKLKCTFTSPKTPEHEGRYYECDVLPFMEIGSVAHKFYLLNIRLPVNEKKKINVGIGEIKDIRLVGIHQNGGFTKVWFAMKTFLTPSIFIIMVWYWRRITMMSRPPVLLEKVIFALGISMTFINIPVEWFSIGFDWTWMLLFGDIRQGIFYAMLLSFWIIFCGEHMMDQHERNHIAGYWKQVGPIAVGSFCLFIFDMCERGVQLTNPFYSIWTTDIGTELAMAFIIVAGICLCLYFLFLCFMVFQVFRNISGKQSSLPAMSKVRRLHYEGLIFRFKFLMLITLACAAMTVIFFIVSQVTEGHWKWGGVTVQVNSAFFTGIYGMWNLYVFALMFLYAPSHKNYGEDQSNGDLGVHSGEELQLTTTITHVDGPTEIYKLTRKEAQE
B11: myc-tagged full-length human SIAH1 (enzyme, UniProt Q8IUQ4-1 1-282)
chain: B5 chain
B12: KCNF1 (voltage-gated potassium channel Kv5.1) fragment 215-489, MYTH prey clone (domain or fragment, UniProt Q9H3M0 215-489)
chain: NRVEHPTLENVETACIGWFTLEYLLRLFSSPNKLHFALSFMNIVDVLAILPFYVSLTLTHLGARMMELTNVQQAVQALRIMRIARIFKLARHSSGLQTLTYALKRSFKELGLLLMYLAVGIFVFSALGYTMEQSHPETLFKSIPQSFWWAIITMTTVGYGDIYPKTTLGKLNAAISFLCGVIAIALPIHPIINNFVRYYNKQRVLETAAKHELELMELNSSSGGEGKTGGSRSDLDNLPPEPAGKEAPSCSSRLKLSHSDTFIPLLTEEKHHRTR
B13: VAPA (vesicle-associated membrane protein-A, VAP33) fragment 86-236, MYTH prey clone (domain or fragment, UniProt Q9P0L0-1 86-236)
chain: DPNEKSKHKFMVQTIFAPPNTSDMEAVWKEAKPDELMDSKLRCVFEMPNENDKLNDMEPSKAVPLNASKQDGPMPKPHSVSLNDTETRKLMEECKRLQGEMMKLSEENRHLRDEGLRLRKVAHSDKPGSTSTASFRDNVTSPLPSLLVVIA
B14: WLS (Wntless/GPR177) fragment 451-541, MYTH prey clone (domain or fragment, UniProt Q5T9L3-1 451-541)
chain: IVSQVTEGHWKWGGVTVQVNSAFFTGIYGMWNLYVFALMFLYAPSHKNYGEDQSNGDLGVHSGEELQLTTTITHVDGPTEIYKLTRKEAQE

In one test the target is MOR C-terminal tail (C-tail, residues 361-420) fused to the GAL4 DNA binding domain (human). Briefly: two-hybrid; directed traditional Y2H: MOR IL1, IL2, IL3 or C-tail in pAS2-1 co-transformed with MORIP cDNA clones in pACT2 into MaV103; β-gal activity (blue colony).
Consider B1, for which the binding result is “no binding”.

Turning to B2, the binding entry is “no binding”.

Consider B3, for which the binding entry is given as “binds”.

For the next test, the target named is MOR-IL2-GST fusion protein (residues 166-187, pGEX-4T-1) (human). The experiment in a line: pull-down; GST fusion protein bound to glutathione sepharose beads pulls down S-tagged protein from bacterial lysate; Western blot with HRP-conjugated anti-S-tag antibody; beads alone and GST-coated beads as controls; only the target purified. A general note: Immunoblotting shows a protein as a band on a membrane.
Take B4: the binding entry was “binds”.

B5: the binding entry is recorded as “binds”.

The next test addresses FLAG-tagged mu-opioid receptor stably expressed in HEK293 cells (HEK-MOR). The experiment in a line: co-IP; FLAG-tagged MOR, DOR or KOR immunoprecipitated with rabbit anti-FLAG on Protein-G Dynabeads from 1 mg lysate of stably expressing HEK293 cells transfected with tagged MORIPs; blot anti-myc or anti-HA; mock IP with non-specific rabbit IgG; cells of Figure 7B treated 6 hours with 30 µM MG132.
As to B6, the binding entry is reported as “binds”.

As for B7, the binding entry is listed as “binds”.

Turning to B8, the binding result is “binds”.

For B9, the binding result was “binds”.

For the molecule B10, the binding entry is recorded as “binds”.

On to B11, for which the binding entry was “binds”.

The target in a further test is full-length human mu-opioid receptor (MOR), MYTH bait in pCCW-STE (human). Briefly: two-hybrid; split-ubiquitin membrane yeast two-hybrid (MYTH) screen: full-length human MOR bait in pCCW-STE, human fetal brain library in pPR3-N, strain THY.AP4; quadruple dropout plates with 3AT; β-gal.
Turning to B12, the binding entry is listed as “binds”.

As to B13, the binding entry is given as “binds”.

As to B14, the binding result is recorded as “binds”.
